Measurements reported in PubChem BioAssay AID1259405 (NCATS, 2018)

- Test: 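Knock-downs that lift recombinant protein yield in hamster ovary cells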 (primary screen)
- Cells: Chinese hamster CHO-K1 ovary cells with stable secreted eGFP expression
- Reagent: single siRNA against mouse genes, 0.8 pmol siRNA per well (2 µl of 400 nM stock)
- Time to read-out: 3 days
- Measurement: 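Per-well intracellular GFP measured by laser scanning cytometry, plus viability from ATP luminescence, each relative to plate median of non-targeting control wells, in %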
- Direction: GFP, % of control: higher = more GFP per well, higher productivity; viability (ATP), % of control: higher = more viable cells (more ATP)
- Rule for the call: 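a knock-down is called active if GFP reaches 120% or more of non-targeting control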
Shown is an unselected part of about 50,000 deposited reagents. In the full data, about 4,000 (8%) got an active call. 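Mouse siRNA library applied to hamster cells; one well for each siRNA.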 Entries without a mark were called inactive. Reagents against one gene are numbered here.

{"gene knocked down":"Tmsb15a (thymosin beta 15a)","siRNA no.":1,"GFP, % of control":57.1,"viability (ATP), % of control":62}
{"gene knocked down":"Tmsb15a (thymosin beta 15a)","siRNA no.":2,"GFP, % of control":98.2,"viability (ATP), % of control":44.6}
{"gene knocked down":"Tmsb15a (thymosin beta 15a)","siRNA no.":3,"GFP, % of control":44,"viability (ATP), % of control":64.4}
{"gene knocked down":"Slc66a3","siRNA no.":1,"GFP, % of control":64,"viability (ATP), % of control":76.7}
{"gene knocked down":"Slc66a3","siRNA no.":2,"GFP, % of control":106,"viability (ATP), % of control":54.9}
{"gene knocked down":"Slc66a3","siRNA no.":3,"GFP, % of control":"122 (active)","viability (ATP), % of control":61.2}
{"gene knocked down":"Or5m10 (olfactory receptor family 5 subfamily M member 10)","siRNA no.":1,"GFP, % of control":37.1,"viability (ATP), % of control":49}
{"gene knocked down":"Or5m10 (olfactory receptor family 5 subfamily M member 10)","siRNA no.":2,"GFP, % of control":72.8,"viability (ATP), % of control":97.2}
{"gene knocked down":"Or5m10 (olfactory receptor family 5 subfamily M member 10)","siRNA no.":3,"GFP, % of control":33.3,"viability (ATP), % of control":57.5}
{"gene knocked down":"Mcph1 (microcephaly, primary autosomal recessive 1)","siRNA no.":1,"GFP, % of control":62,"viability (ATP), % of control":80.9}
{"gene knocked down":"Mcph1 (microcephaly, primary autosomal recessive 1)","siRNA no.":2,"GFP, % of control":"129 (active)","viability (ATP), % of control":94.6}
{"gene knocked down":"Mcph1 (microcephaly, primary autosomal recessive 1)","siRNA no.":3,"GFP, % of control":93.4,"viability (ATP), % of control":62.3}
{"gene knocked down":"Ormdl1 (ORM1-like 1 (S. cerevisiae))","siRNA no.":1,"GFP, % of control":74.7,"viability (ATP), % of control":85.2}
{"gene knocked down":"Ormdl1 (ORM1-like 1 (S. cerevisiae))","siRNA no.":2,"GFP, % of control":80.9,"viability (ATP), % of control":64.6}
{"gene knocked down":"Ormdl1 (ORM1-like 1 (S. cerevisiae))","siRNA no.":3,"GFP, % of control":91.2,"viability (ATP), % of control":106}
{"gene knocked down":"Amer2 (APC membrane recruitment 2)","siRNA no.":1,"GFP, % of control":62.2,"viability (ATP), % of control":87}
{"gene knocked down":"Amer2 (APC membrane recruitment 2)","siRNA no.":2,"GFP, % of control":52.4,"viability (ATP), % of control":35}
{"gene knocked down":"Amer2 (APC membrane recruitment 2)","siRNA no.":3,"GFP, % of control":93.9,"viability (ATP), % of control":75.8}
{"gene knocked down":"Or12e1 (olfactory receptor family 12 subfamily E member 1)","siRNA no.":1,"GFP, % of control":74.8,"viability (ATP), % of control":48.4}
{"gene knocked down":"Or12e1 (olfactory receptor family 12 subfamily E member 1)","siRNA no.":2,"GFP, % of control":89.1,"viability (ATP), % of control":82.4}
{"gene knocked down":"Or12e1 (olfactory receptor family 12 subfamily E member 1)","siRNA no.":3,"GFP, % of control":66.3,"viability (ATP), % of control":78.1}
{"gene knocked down":"Or14j2 (olfactory receptor family 14 subfamily J member 2)","siRNA no.":1,"GFP, % of control":42.4,"viability (ATP), % of control":31.5}
{"gene knocked down":"Or14j2 (olfactory receptor family 14 subfamily J member 2)","siRNA no.":2,"GFP, % of control":46.2,"viability (ATP), % of control":53.3}
{"gene knocked down":"Or14j2 (olfactory receptor family 14 subfamily J member 2)","siRNA no.":3,"GFP, % of control":61.5,"viability (ATP), % of control":83.7}
{"gene knocked down":"Orc3 (origin recognition complex, subunit 3)","siRNA no.":1,"GFP, % of control":30.9,"viability (ATP), % of control":34}
{"gene knocked down":"Orc3 (origin recognition complex, subunit 3)","siRNA no.":2,"GFP, % of control":57.3,"viability (ATP), % of control":62.1}
{"gene knocked down":"Orc3 (origin recognition complex, subunit 3)","siRNA no.":3,"GFP, % of control":37.3,"viability (ATP), % of control":83.7}

2 neighbouring entries already listed:
{"gene knocked down":"Amer2 (APC membrane recruitment 2)","siRNA no.":3,"GFP, % of control":93.9,"viability (ATP), % of control":75.8}
{"gene knocked down":"Or12e1 (olfactory receptor family 12 subfamily E member 1)","siRNA no.":1,"GFP, % of control":74.8,"viability (ATP), % of control":48.4}
